Experimental data from US20030225152A1, “3-(Arylamino)methylene-1, 3-dihydro-2h-indol-2-ones as kinase inhibitors” (priority 2001, published 2003).
Some of these results come from one statement about several compounds together. At least one read-out could not be matched to a standard name with certainty.

Tested on: VEGF induced increases in intracellular calcium levels in HUVEC (human umbilical vein endothelial cells)
Experiment: VEGF Stimulated Ca++ Signal in vitro (FLIPR)
Assay type: cell-based
Details: either-or criterion summarising Table 2
Protocol: Cells were loaded with calcium indicator Fluo-4 for 45 minutes at 37° C. Cells were washed 4 times (Original Cell Wash, Labsystems) to remove extracellular dye. […] Data were generated by determining max-min fluorescence levels for unstimulated, stimulated, and drug treated samples. IC50 values for test compounds were calculated from % inhibition of VEGF stimulated responses in the absence of inhibitor.

SMILES | % inhibition of VEGF or VEGF IC50 in either the VEGF stimulated Ca++ signal assay or KDR assay
NS(=O)(=O)c1ccc(NC=C2C(=O)Nc3ccc(Cl)cc32)cc1 [Example 116, 4-[(5-Chloro-2-oxo-1,2-dihydro-indol-3-ylidenemethyl)-amino]-benzenesulfonamide] | either % inhibition of VEGF>79% or VEGIF IC50<1.0 μM
Cc1cccc2c1C(=CNc1ccc(OC(F)F)cc1)C(=O)N2 [Example 119, 3-{[4-(1,1-Difluoro-methoxy)-phenylamino]-methylene}-4-methyl-1,3-dihydro-indol-2-one] | either % inhibition of VEGF>79% or VEGIF IC50<1.0 μM
CCOc1ccc(NC=C2C(=O)Nc3cccc(C)c32)cc1 [Example 122, 3-[(4-Ethoxy-phenylamino)-methylene]-4-methyl-1,3-dihydro-indol-2-one] | either % inhibition of VEGF>79% or VEGIF IC50<1.0 μM
Cc1cccc2c1C(=CNc1ccc(C(C)C)cc1)C(=O)N2 [Example 123, 3-[(4-Isopropyl-phenylamino)-methylene]-4-methyl-1,3-dihydro-indol-2-one] | either % inhibition of VEGF>79% or VEGIF IC50<1.0 μM
Cc1cccc2c1C(=CNc1ccc3c(c1)OCO3)C(=O)N2 [Example 124, 3-(Benzo[1,3]dioxol-5-ylaminomethylene)-4-methyl-1,3-dihydro-indol-2-one] | either % inhibition of VEGF>79% or VEGIF IC50<1.0 μM
Cc1ccc(NC=C2C(=O)Nc3cccc(C)c32)cc1O [Example 125, 3-[(3-Hydroxy-4-methyl-phenylamino)-methylene]-4-methyl-1,3-dihydro-indol-2-one] | either % inhibition of VEGF>79% or VEGIF IC50<1.0 μM
COc1ccc(NC=C2C(=O)Nc3cccc(C)c32)cc1OC [Example 126, 3-[(3,4-Dimethoxy-phenylamino)-methylene]-4-methyl-1,3-dihydro-indol-2-one] | either % inhibition of VEGF>79% or VEGIF IC50<1.0 μM
Cc1cccc2c1C(=CNc1ccc(C#N)cc1)C(=O)N2 [Example 128, 4-[(4-Methyl-2-oxo-1,2-dihydro-indol-3-ylidenemethyl)-amino]-benzonitrile] | either % inhibition of VEGF>79% or VEGIF IC50<1.0 μM
Cc1cccc2c1C(=CNc1ccc(C(N)=O)cc1)C(=O)N2 [Example 129, 4-[(4-Methyl-2-oxo-1,2-dihydro-indol-3-ylidenemethyl)-amino]-benzamide] | either % inhibition of VEGF>79% or VEGIF IC50<1.0 μM
Cc1cccc2c1C(=CNc1ccc(CC(=O)O)cc1)C(=O)N2 [Example 131, {4-[(4-Methyl-2-oxo-1,2-dihydro-indol-3-ylidenemethyl)-amino]-phenyl}-acetic acid] | either % inhibition of VEGF>79% or VEGIF IC50<1.0 μM
CCOC(=O)Nc1ccc(NC=C2C(=O)Nc3ccccc32)cc1O [Example 134, {2-Hydroxy-4-[(2-oxo-1,2-dihydro-indol-3-ylidenemethyl)-amino]-phenyl}-carbamic acid ethyl ester] | either % inhibition of VEGF>79% or VEGIF IC50<1.0 μM
CSc1ccc(NC=C2C(=O)Nc3ccccc32)cc1 [Example 136, 3-[(4-Methylsulfanyl-phenylamino)-methylene]-1,3-dihydro-indol-2-one] | either % inhibition of VEGF>79% or VEGIF IC50<1.0 μM
CSc1ccc(NC=C2C(=O)Nc3ccc(Cl)cc32)cc1 [Example 138, 5-Chloro-3-[(4-methylsulfanyl-phenylamino)-methylene]-1,3-dihydro-indol-2-one] | either % inhibition of VEGF>79% or VEGIF IC50<1.0 μM
